# Test results: the supplement of paper PMC3334620
# Over roughly 33,000 sequences, “E-score (-0.5 to 0.5)” has its median near -0.0014; the highest 2% begin near 0.25. Some of the results follow.
# Target: T1, Cad1 (UniProt P24813)
# T1 sequence: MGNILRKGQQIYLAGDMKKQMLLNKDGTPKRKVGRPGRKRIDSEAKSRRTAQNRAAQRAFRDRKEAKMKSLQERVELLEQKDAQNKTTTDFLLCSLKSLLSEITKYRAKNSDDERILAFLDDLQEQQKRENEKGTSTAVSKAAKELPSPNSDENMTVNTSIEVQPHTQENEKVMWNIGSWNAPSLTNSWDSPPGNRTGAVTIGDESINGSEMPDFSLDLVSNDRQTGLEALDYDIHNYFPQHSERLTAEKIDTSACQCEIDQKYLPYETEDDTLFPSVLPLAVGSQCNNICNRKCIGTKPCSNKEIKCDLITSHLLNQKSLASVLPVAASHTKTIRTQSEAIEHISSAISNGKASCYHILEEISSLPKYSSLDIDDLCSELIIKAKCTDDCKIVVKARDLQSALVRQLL
# Assay: PBM E-score (8-mer binding enrichment) (E-score (-0.5 to 0.5)); higher = stronger / more preferred TF binding
# Details: protein concentration: 100 nM; construct: GST-full length
# Method: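 Universal 'all 10-mer' protein binding microarrays (Agilent AMADID 015681) probed with GST-tagged S. cerevisiae TFs (full-length or DBD) made by in vitro transcription/translation (PURExpress), about 100-200 nM. Bound TF was detected with fluorescent anti-GST. Each ungapped 8-mer (which stands for itself and its reverse complement) is scored by the PBM enrichment score (E-score), a modified Wilcoxon-Mann-Whitney statistic from -0.5 to +0.5, computed with the Universal PBM Analysis Suite. Scale: above 0.35 generally sequence-specific binding.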
row,Sequence,PBM E-score
1,GGCTGACC,-0.121
2,ATAGGCGA,-0.114
3,TCGAGCAA,0.176
4,AGGACATG,0.0267
5,CGACGAGC,-0.0755
6,ACTGGGGC,-0.267
7,CCTTAAGC,-0.0856
8,TCGGAGAA,-0.148
9,GACTGCGC,-0.0924
10,AACCCGGC,0.0289
11,AGTCGGGA,-0.077
12,CGGATGAA,0.213
13,CTTTAAAC,-0.176
14,GCTCTTCA,-0.172
15,CATACTCA,-0.0553
16,TAGGGGCA,-0.109
17,ATAAAACA,0.0107
18,ACCTCGTA,0.0319
19,CGCCACAC,0.0228
20,CCATAGCA,-0.118
21,CCCTCTGC,-0.3
22,CCGATACA,-0.0059
23,CCATCTTA,-0.117
24,CACAGTAG,-0.0343
25,CGAGGGAG,-0.12

row,Sequence,PBM E-score
1,ACTAGTTG,-0.0546
2,GTACAGAC,0.0229
3,AATCGGTC,0.0815
4,AATGGCGG,-0.109
5,CTCAAACC,-0.0865
6,ATGCTGCG,0.0156
7,GATAACGA,0.0737
8,GACTCGCA,-0.0793
9,AAGTCTGG,0.105
10,ATCATATG,0.133
11,CAGCAGCA,-0.0517
12,AGTCTGCA,-0.235
13,CCCTCTAG,-0.222
14,CACAATGA,0.0199
15,CAAAATTG,0.131
16,ATGTAGAG,-0.112
17,ATCCATCG,-0.0791
18,CCCATGAA,-0.0574
19,ATGCAGAC,0.153
20,TCAGGCAA,-0.04
21,AACAAATG,0.0272
22,CCTTTTAC,-0.0655
23,ACTTAGAT,0.223
24,GGACATAC,-0.0127
25,CTTCCAAA,0.0591

row,Sequence,PBM E-score
1,CGGAGCTC,-0.169
2,GAAGATCC,-0.12
3,CCCGCGAA,0.11
4,ATCGTAAG,-0.0168
5,ACTGCCGC,0.0883
6,AGTAAAAC,0.0871
7,CGTGCATC,-0.081
8,CATAGAAC,-0.0836
9,AGATAACA,0.121
10,GTGCTCTA,-0.119
11,CAGCTAGA,-0.0654
12,AACGTTTG,0.0251
13,TCAGCCGA,0.0312
14,ACCCATAG,-0.265
15,AAGACCTC,-0.216
16,CTCAAGGA,0.00237
17,AAGCGCTG,0.212
18,ATATAAGA,0.22
19,ACCCGTTA,-0.0468
20,AAATAAGA,0.0927
21,GCAGGACA,0.128
22,CCTCGCTA,-0.238
23,CTGTTACA,0.00341
24,CAAGGAAC,0.0717
25,AGGCCAAA,0.0775

# Reformatted as tab-separated lines: part of the list above
row	Sequence	PBM E-score
13	CCCTCTAG	-0.222
14	CACAATGA	0.0199
15	CAAAATTG	0.131
16	ATGTAGAG	-0.112
17	ATCCATCG	-0.0791
18	CCCATGAA	-0.0574
19	ATGCAGAC	0.153

# Remaining list, next part.

row,Sequence,PBM E-score
1,CTGTCGAA,-0.00556
2,CAATGCTA,0.036
3,CGTTTGCA,0.104
4,CCGCTCGC,-0.176
5,AGCTAACG,0.00297
6,AGTGATAA,0.0537
7,AAGATTCG,0.172
8,GCTTAAGA,0.0319
9,AAAGCAAG,0.0883
10,GATCACAC,-0.0166
11,CGGTTCCA,0.085
12,GCTGTCAC,-0.0985
13,AGGGTTTC,-0.074
14,CCCGGAGG,-0.36
15,CACTCTAG,-0.0635
16,CCTTATTC,-0.103
17,ACAACGTA,-0.0654
18,ACACCGCC,0.0284
19,AGAACGGG,-0.166
20,CTGAAAAA,0.0585
21,AAATCAAT,0.109
22,CGGCCCCG,-0.177
23,AGGGTTAC,-0.133
24,AGTCCAGG,-0.16
25,AACAAGAT,0.126

row,Sequence,PBM E-score
1,CAACCGCG,0.297
2,CGATGCAC,-0.0939
3,CTATCTAA,0.00628
4,GCAGGCAA,0.131
5,AACCATGC,0.176
6,AGTTAAAC,0.0883
7,ACGGCCAG,0.0397
8,AAAGTCAA,-0.0656
9,TAAATGAA,-0.0294
10,GGCCCAAC,0.0185
11,GCTCTGAC,-0.0426
12,CCGGAACA,0.108
13,ACCACATG,0.183
14,CTGCCAAC,-0.0116
15,ACTTAGGC,-0.0295
16,ACCCCGTC,-0.254
17,GCGCTCAA,0.125
18,CACCCTAA,0.0895
19,ACAGTTCA,0.115
20,GGATGGAC,-0.051
21,CATTCTGA,0.0397
22,GAACGATC,0.0052
23,TCACTGGA,-0.0472
24,CCTCCCGA,-0.191
25,CTACCCGC,-0.0849

row,Sequence,PBM E-score
1,GTCTGTAA,0.0181
2,ATCACTGC,0.0917
3,CGCCTCCA,-0.04
4,CAAACATC,0.0154
5,AACGCGCC,-0.0193
6,AAATAGTT,0.129
7,ACAGGTAC,-0.213
8,TATCAGGA,0.116
9,GCGGACGC,-0.00201
10,CCCATTGC,-0.105
11,CTCGACTC,0.002
12,ATGGTAAG,-0.124
13,GAAATTCC,0.0725
14,ACCTACAA,0.17
15,AGACCTGC,-0.191
16,AAGACTTA,-0.0766
17,AACCGAAA,0.164
18,AGTCTGCC,-0.0107
19,CCCCCAGC,-0.368
20,CATACCGA,-0.1
21,GGTCCCAA,-0.116
22,CGACTGGA,-0.0784
23,GGCCTTAA,0.128
24,TCTGCCAA,-0.131
25,AAGCAGGA,0.0169

row,Sequence,PBM E-score
1,CCATATGG,0.207
2,CTGAGTCA,0.149
3,AACCAAGT,0.0561
4,ATGTGACC,0.0156
5,ATGAGAGA,0.0852
6,TACCGGTA,0.0874
7,GGGCTGTA,-0.205
8,AGACGATA,0.213
9,AATGCGGA,0.148
10,ACCTAGTA,-0.271
11,AAGATAAG,0.062
12,CACGGCGG,-0.0994
13,CTATACGA,-0.0469
14,ACCTATCA,-0.0641
15,ATATGCTC,-0.115
16,ATACGCAT,0.0481
17,TTCTGCAA,0.0661
18,AAGGCCCA,-0.195
19,AGATCGTG,-0.0814
20,CACGCATG,0.0109
21,CCTGGTCA,-0.174
22,AATCATCT,-0.0851
